PubChem BioAssay AID1259405, NCATS – 2018
Shown is a random part of about 50,000 reagents tested. Of all reagents, about 4,000 (8%) got an active call. 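Mouse siRNA library applied to hamster cells; one well for each siRNA.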 Reagents against one gene are numbered here. No sequences are given here.

Aim: 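Mouse-designed siRNAs used to find CHO productivity engineering targets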 (primary screen)
System: Chinese hamster CHO-K1 ovary cells with stable secreted eGFP expression
Reagents: single siRNA against mouse genes, 0.8 pmol siRNA per well (2 µl of 400 nM stock)
Duration: 3 days
Measured: 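Per-well intracellular GFP measured by laser scanning cytometry, plus viability from ATP luminescence, each relative to plate median of non-targeting control wells, in %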
Direction: GFP, % of control: higher = more GFP per well, higher productivity; viability (ATP), % of control: higher = more viable cells (more ATP)
Call rule: 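Called active when intracellular GFP, relative to negative control, is at or above 120%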

Or5an9 (olfactory receptor family 5 subfamily AN member 9) #1 | GFP, % of control: 68.8; viability (ATP), % of control: 59.8; outcome: inactive
Or5an9 (olfactory receptor family 5 subfamily AN member 9) #2 | GFP, % of control: 41.9; viability (ATP), % of control: 50; outcome: inactive
Or5an9 (olfactory receptor family 5 subfamily AN member 9) #3 | GFP, % of control: 128; viability (ATP), % of control: 81.4; outcome: active
Dmac1 (distal membrane arm assembly complex 1) #1 | GFP, % of control: 76.6; viability (ATP), % of control: 72.7; outcome: inactive
Dmac1 (distal membrane arm assembly complex 1) #2 | GFP, % of control: 47.8; viability (ATP), % of control: 69.7; outcome: inactive
Dmac1 (distal membrane arm assembly complex 1) #3 | GFP, % of control: 87.4; viability (ATP), % of control: 82.5; outcome: inactive
Limd2 (LIM domain containing 2) #1 | GFP, % of control: 143; viability (ATP), % of control: 110; outcome: active
Limd2 (LIM domain containing 2) #2 | GFP, % of control: 72.8; viability (ATP), % of control: 112; outcome: inactive
Limd2 (LIM domain containing 2) #3 | GFP, % of control: 92.7; viability (ATP), % of control: 103; outcome: inactive
Susd2 (sushi domain containing 2) #1 | GFP, % of control: 144; viability (ATP), % of control: 112; outcome: active
Susd2 (sushi domain containing 2) #2 | GFP, % of control: 45.9; viability (ATP), % of control: 55.9; outcome: inactive
Cdr2 (cerebellar degeneration-related 2) #1 | GFP, % of control: 68.5; viability (ATP), % of control: 83.3; outcome: inactive
Cdr2 (cerebellar degeneration-related 2) #2 | GFP, % of control: 69.7; viability (ATP), % of control: 73.9; outcome: inactive
Cdr2 (cerebellar degeneration-related 2) #3 | GFP, % of control: 63.4; viability (ATP), % of control: 52.5; outcome: inactive
Sycp3 (synaptonemal complex protein 3) #1 | GFP, % of control: 90.6; viability (ATP), % of control: 104; outcome: inactive
Sycp3 (synaptonemal complex protein 3) #2 | GFP, % of control: 101; viability (ATP), % of control: 118; outcome: inactive
Sycp3 (synaptonemal complex protein 3) #3 | GFP, % of control: 149; viability (ATP), % of control: 141; outcome: active
Prpf8 (pre-mRNA processing factor 8) #1 | GFP, % of control: 95.2; viability (ATP), % of control: 104; outcome: inactive
Prpf8 (pre-mRNA processing factor 8) #2 | GFP, % of control: 82.9; viability (ATP), % of control: 82.8; outcome: inactive
Timp2 (tissue inhibitor of metalloproteinase 2) #1 | GFP, % of control: 86.4; viability (ATP), % of control: 113; outcome: inactive
Timp2 (tissue inhibitor of metalloproteinase 2) #2 | GFP, % of control: 76.9; viability (ATP), % of control: 70; outcome: inactive
Timp2 (tissue inhibitor of metalloproteinase 2) #3 | GFP, % of control: 12; viability (ATP), % of control: 121; outcome: inactive
Usp13 (ubiquitin specific peptidase 13 (isopeptidase T-3)) #1 | GFP, % of control: 61.2; viability (ATP), % of control: 84.3; outcome: inactive
Usp13 (ubiquitin specific peptidase 13 (isopeptidase T-3)) #2 | GFP, % of control: 32.2; viability (ATP), % of control: 47.4; outcome: inactive
Usp13 (ubiquitin specific peptidase 13 (isopeptidase T-3)) #3 | GFP, % of control: 55; viability (ATP), % of control: 75.7; outcome: inactive
Lrrc3b (leucine rich repeat containing 3B) #1 | GFP, % of control: 138; viability (ATP), % of control: 72.5; outcome: active
Lrrc3b (leucine rich repeat containing 3B) #2 | GFP, % of control: 87.3; viability (ATP), % of control: 95.5; outcome: inactive
Lrrc3b (leucine rich repeat containing 3B) #3 | GFP, % of control: 77; viability (ATP), % of control: 79.4; outcome: inactive
Serpine2 (serine (or cysteine) peptidase inhibitor, clade E, member 2) #1 | GFP, % of control: 92; viability (ATP), % of control: 106; outcome: inactive
Serpine2 (serine (or cysteine) peptidase inhibitor, clade E, member 2) #2 | GFP, % of control: 43.4; viability (ATP), % of control: 67.7; outcome: inactive
Serpine2 (serine (or cysteine) peptidase inhibitor, clade E, member 2) #3 | GFP, % of control: 43.2; viability (ATP), % of control: 80.7; outcome: inactive
Asgr1 (asialoglycoprotein receptor 1) #1 | GFP, % of control: 91.1; viability (ATP), % of control: 92.3; outcome: inactive
Asgr1 (asialoglycoprotein receptor 1) #2 | GFP, % of control: 80; viability (ATP), % of control: 74.9; outcome: inactive
Asgr1 (asialoglycoprotein receptor 1) #3 | GFP, % of control: 75.6; viability (ATP), % of control: 79.2; outcome: inactive
St6galnac6 #1 | GFP, % of control: 95.8; viability (ATP), % of control: 87.1; outcome: inactive
St6galnac6 #2 | GFP, % of control: 150; viability (ATP), % of control: 149; outcome: active
St6galnac6 #3 | GFP, % of control: 94.5; viability (ATP), % of control: 88.4; outcome: inactive
Npvf (neuropeptide VF precursor) #1 | GFP, % of control: 66.4; viability (ATP), % of control: 60.3; outcome: inactive
Npvf (neuropeptide VF precursor) #2 | GFP, % of control: 80.3; viability (ATP), % of control: 72.1; outcome: inactive
Npvf (neuropeptide VF precursor) #3 | GFP, % of control: 53.6; viability (ATP), % of control: 54.6; outcome: inactive

Laid out differently: entries from further up.
gene knocked down | reagent no. | GFP, % of control | viability (ATP), % of control | outcome
Prpf8 (pre-mRNA processing factor 8) | 1 | 95.2 | 104 | inactive
Prpf8 (pre-mRNA processing factor 8) | 2 | 82.9 | 82.8 | inactive
Timp2 (tissue inhibitor of metalloproteinase 2) | 1 | 86.4 | 113 | inactive
